Amino acid sequences for entries named in this document (tags omitted).
UniProt P16473, whole entry, looked up: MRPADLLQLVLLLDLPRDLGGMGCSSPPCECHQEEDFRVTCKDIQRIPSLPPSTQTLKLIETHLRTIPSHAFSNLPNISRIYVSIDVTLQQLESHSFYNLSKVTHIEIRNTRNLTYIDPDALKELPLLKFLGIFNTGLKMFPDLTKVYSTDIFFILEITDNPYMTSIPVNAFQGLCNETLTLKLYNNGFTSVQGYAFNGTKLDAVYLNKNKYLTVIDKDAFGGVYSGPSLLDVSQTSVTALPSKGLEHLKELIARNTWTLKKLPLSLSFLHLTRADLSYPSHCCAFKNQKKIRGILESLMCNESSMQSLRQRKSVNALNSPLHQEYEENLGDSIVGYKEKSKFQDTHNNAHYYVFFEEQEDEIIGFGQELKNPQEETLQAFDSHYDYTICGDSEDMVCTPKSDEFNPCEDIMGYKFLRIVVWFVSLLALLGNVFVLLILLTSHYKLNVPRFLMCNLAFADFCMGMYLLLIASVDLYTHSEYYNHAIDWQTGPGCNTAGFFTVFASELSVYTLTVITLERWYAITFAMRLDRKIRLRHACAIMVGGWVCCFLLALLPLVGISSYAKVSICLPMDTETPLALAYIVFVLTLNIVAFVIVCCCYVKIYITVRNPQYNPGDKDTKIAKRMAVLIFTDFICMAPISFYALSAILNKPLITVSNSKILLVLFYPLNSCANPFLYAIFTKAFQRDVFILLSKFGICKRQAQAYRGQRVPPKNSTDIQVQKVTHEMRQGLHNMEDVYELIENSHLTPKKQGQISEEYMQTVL

Several values for one entry are separate records, joined by “and”; a condition that tells them apart may be missing. Identical values can stand only once. The whole screen tested about 330,000 compounds, of which about 670 (0.2%) were called active. Inconclusive means that the source gave no clear call. Such entries were picked first, then a sample of the others.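 The calls were made as follows: active = activity change below a set negative limit, meaning inhibition stronger than a set level (cut at about -70% in these data); inconclusive = activity change between two set negative limits; inactive = the rest.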
These molecules were tested against Thyrotropin receptor (Homo sapiens) (UniProt P16473) (assay: Antagonists of the Thyroid Stimulating Hormone Receptor: HTS campaign). Settings: TSHR-expressing cells, TSH-stimulated cAMP HTRF, 2 h; at 11.5 µM; stronger effect = lower value.
Outline: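 TSHR-expressing cells, 200/well, pre-treated with compound, then stimulated with EC80 TSH (4nM final) for 2 hours at 37 deg C. cAMP measured by competitive HTRF: anti-cAMP cryptate antibody in lysis buffer plus cAMP-d2, read after 30 minutes at room temperature.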
`CCN(CCCNC(=O)Cn1ncc2c([nH]c3ccc(C)cc32)c1=O)c1cccc(C)c1` was tested, and the activity change, negative = inhibition was active: -133%.
`Cc1ccc(S(=O)(=O)Nc2ccc(-c3nc4cc(NS(=O)(=O)c5ccc(C)cc5)ccc4o3)cc2)cc1` was tested, and the activity change, negative = inhibition was inconclusive: -62.7%.
For `CC(NC(=O)c1cc(=O)[nH]c2ccccc12)c1ccc(F)cc1F` (centres undefined), the activity change, negative = inhibition was active: -93%.
In the case of `CCCC(CCC(=O)Nc1ccn(-c2ccccc2)n1)C(=O)O` (centres undefined), the activity change, negative = inhibition is reported as inconclusive: -59%.
`COc1ccc(NC(=O)c2ccc(-c3ccccc3)cc2)cc1NS(=O)(=O)c1ccc(F)cc1` was tested, and the activity change, negative = inhibition was inconclusive: -58%.
`CN1C(=O)/C(=C/c2ccc(OCc3ccc(C(=O)O)cc3)c(Cl)c2)NC1=S` was tested, and the activity change, negative = inhibition was inconclusive: -52.9%.
With `Cc1cccc2c1NC(=O)C2(c1ccc(O)cc1)c1ccc(O)cc1` the activity change, negative = inhibition was active: -81.5%.
In the case of `O=C(Nc1cc(S(=O)(=O)Nc2ccc(Cl)cc2)ccc1O)c1ccc(F)cc1F`, the activity change, negative = inhibition is reported as inconclusive: -52.6%.
With `Cc1cc(C)cc(C(=O)NC(CC(N)=O)c2ccc(NCCN3CCCC3)c([N+](=O)[O-])c2)c1` (centres undefined) the activity change, negative = inhibition was active: -89.5%.
For `COc1ccc(S(=O)(=O)n2ccc(-c3cnc(-c4ccccc4)s3)n2)cc1`, the activity change, negative = inhibition was inconclusive: -69.5%.
`CC(=O)Nc1ccc(-c2csc(NC(=O)Nc3ccccc3)n2)cc1` was tested, and the activity change, negative = inhibition was inconclusive: -65%.
For `Cc1c(C(=O)N2CCN(Cc3ccc4c(c3)OCO4)CC2)sc2ncnc(N3CCN(c4ccccc4F)CC3)c12`, the activity change, negative = inhibition was inconclusive: -58.5%.
For `CCOc1ccc(-n2cc(-c3ccccc3)c3c(N4CCOCC4)ncnc32)cc1`, the activity change, negative = inhibition was inactive: -8.04%.
In the case of `O=c1[nH]cnc2ccc([N+](=O)[O-])cc12`, the activity change, negative = inhibition is reported as inconclusive: -62.4%.
In the case of `CC(C)(C=O)C1=CC(=O)c2ccccc2C1=O`, the activity change, negative = inhibition is reported as active: -86.5%.
For `O=C(NC1CCCC1)c1sc(=S)n2c1[nH]c(=O)c1ccccc12`, the activity change, negative = inhibition was inconclusive: -56%.
In the case of `CCOC(=O)Cc1nnc2c(Nc3ccc(Cl)cc3)nc3nonc3n12`, the activity change, negative = inhibition is reported as inconclusive: -55.9%.
In the case of `CNC(=O)c1nnsc1S(=O)(=O)c1ccc(Cl)cc1`, the activity change, negative = inhibition is reported as inconclusive: -65%.
In the case of `COc1ccc(CCNC(=O)c2cc(-c3ccncc3)nc3c(Cl)cccc23)cc1OC`, the activity change, negative = inhibition is reported as inactive: -4.87%.
For `Cc1ccc(CNS(=O)(=O)c2ccc(CN3C(=O)c4cccnc4C3=O)s2)o1`, the activity change, negative = inhibition was active: -88.7%.
For `Cc1ccc(Cn2ccc(NC(=O)c3cc(-c4cccc(Cl)c4)on3)n2)cc1`, the activity change, negative = inhibition was inconclusive: -56%.
In the case of `CCSc1ncc(Cl)c(C(=O)Nc2ccccc2OC)n1`, the activity change, negative = inhibition is reported as inconclusive: -52.5%.
`O=C1C(SCCO)=C(SCCO)C(=O)c2ccccc21` was tested, and the activity change, negative = inhibition was active: -86.5% and inconclusive: -54.7%.
For `CC12CCC(C(=O)N(CCCCN3CCN(Cc4ccccc4)CC3)C1=O)C2(C)C` (centres undefined), the activity change, negative = inhibition was inactive: 4.13%.
In the case of `COc1ccc(CN(C)CC(=O)Nc2cc(OC)c([N+](=O)[O-])cc2C)c(OC)c1`, the activity change, negative = inhibition is reported as inactive: -5.54%.
With `O=[N+]([O-])/C=C/c1c(OCc2ccccc2)ccc2ccccc12` the activity change, negative = inhibition was inactive: -5.17%.
`CCCSc1nsc(NC(=O)C(c2ccccc2)c2ccccc2)n1` was tested, and the activity change, negative = inhibition was active: -80%.
In the case of `Fc1cnc(N/N=C/c2ccc(-c3ccc(Br)cc3)o2)nc1N1CCOCC1`, the activity change, negative = inhibition is reported as inactive: -6.91%.
For `CCCCCCCCNc1ncnc2ccccc12`, the activity change, negative = inhibition was inconclusive: -51.5%.
For `O=C(O)c1ccc(NC2=C(Cl)C(=O)c3ccccc3C2=O)cc1`, the activity change, negative = inhibition was active: -86.8%.
In the case of `O=C(Nc1cccc(S(=O)(=O)Nc2ccc(Cl)cc2)c1)c1cc2c(s1)CCCC2`, the activity change, negative = inhibition is reported as inconclusive: -58.6%.
With `O=C(Nc1nnc(C(F)(F)F)s1)c1ccc(Br)s1` the activity change, negative = inhibition was inconclusive: -51.8%.
With `CCn1cc(C(=O)O)c(=O)c2cnc(N3CCN(C(=S)NC(=O)c4ccc(Cl)cc4)CC3)nc21` the activity change, negative = inhibition was inactive: -15.7%.
In the case of `CC(C)C(c1nnnn1Cc1ccco1)N1CCN(c2nc3ccccc3s2)CC1` (centres undefined), the activity change, negative = inhibition is reported as inconclusive: -59%.
In the case of `C#CC(=O)N(c1cccc(OC)c1)C(C(=O)NC1CCCC1)c1cccs1` (centres undefined), the activity change, negative = inhibition is reported as inconclusive: -59.4%.
With `Clc1ccc(C2Nc3cccc4cccc(c34)N2)cc1` the activity change, negative = inhibition was inconclusive: -63.3%.
In the case of `O=C(CC1C(=O)NCCN1C(=O)c1ccc(Cl)cc1)Nc1ccc(F)cc1` (centres undefined), the activity change, negative = inhibition is reported as inactive: -4.87%.
For `CC(NC(=O)Nc1nnc(C(F)(F)F)s1)(C(F)(F)F)C(F)(F)F`, the activity change, negative = inhibition was active: -94.1%.
With `Cc1ccc(S(=O)(=O)N2CCCCC2)cc1NC(=O)Cn1ncc(Cl)c(Cl)c1=O` the activity change, negative = inhibition was inconclusive: -69.9%.
In the case of `COc1ccc(CNC(=O)Cn2nc(Cc3cccnc3)c3ccccc3c2=O)cc1`, the activity change, negative = inhibition is reported as inconclusive: -50.1%.
In the case of `Cc1[nH]n(-c2ccccc2)c(=O)c1-c1cccc(Cl)c1`, the activity change, negative = inhibition is reported as inactive: 24.8%.
For `O=[N+]([O-])c1ccc(N2CCN(S(=O)(=O)c3ccccc3)CC2)cc1NCCN1CCOCC1`, the activity change, negative = inhibition was inactive: 0.396%.
In the case of `O=C(Nn1c(SCc2ccc([N+](=O)[O-])cc2)nc2ccccc2c1=O)c1ccc(F)cc1`, the activity change, negative = inhibition is reported as active: -74.2%.
`O=C(c1ccc(F)c(F)c1)N1CCC2(CC1)NCCc1[nH]cnc12` was tested, and the activity change, negative = inhibition was inconclusive: -53.4%.
`COC(=O)c1sc(NC(=O)C(C)C)c(C(=O)OC)c1C` was tested, and the activity change, negative = inhibition was inconclusive: -51.2%.
In the case of `O=[N+]([O-])c1ccc(NC(=S)NCc2ccc(F)cc2)cc1`, the activity change, negative = inhibition is reported as inconclusive: -65.2%.
For `CS(=O)(=O)c1ccc(C(=O)OCc2nnc(-c3ccccc3)o2)cc1[N+](=O)[O-]`, the activity change, negative = inhibition was inconclusive: -57.6%.
In the case of `Cc1ccc(NC(=O)c2nc(S(=O)(=O)Cc3ccccc3)ncc2Cl)cc1`, the activity change, negative = inhibition is reported as inconclusive: -58.4%.
With `CCCN1C2CCCC1CC(NC(=O)c1cccc(OC)c1)C2` (centres undefined) the activity change, negative = inhibition was inconclusive: -53.3%.
`COc1ccc(/C=N/n2c(C)nnc2C)c(OC)c1OC` was tested, and the activity change, negative = inhibition was inconclusive: -68.2%.
`Fc1ccccc1NC(=S)NCCc1cccc(Cl)c1` was tested, and the activity change, negative = inhibition was inactive: -5.19%.
For `CCOC(=O)c1ccc(-c2ccc(/C=N/NC(=O)Cc3nnc(N)s3)o2)cc1`, the activity change, negative = inhibition was inconclusive: -65.8%.
With `CC(C)Cn1c(N)c(C(=O)COC(=O)CC23CC4CC(CC(C4)C2)C3)c(=O)n(C)c1=O` the activity change, negative = inhibition was inconclusive: -53.8%.
`CCN(C(=O)c1ccc(C(C)(C)C)cc1)c1nnc(Cn2nnc3ccccc32)s1` was tested, and the activity change, negative = inhibition was inconclusive: -60.1%.

From PubChem BioAssay AID504810 (National Center for Advancing Translational Sciences (NCATS), 2011)
% is scaled to controls: 0 for no effect and ±100 for the full control effect.
